# Laboratory results from patent US8673951B2, “Isoxazoline-substituted benzamide compound and pesticide” (priority 2005, dated 2014).
# Some entries share one result that the patent states for a list of compounds. At least one compound was matched to its structure with a doubt left.
# Test system: cabbage moth (Plutella xylostella)
# Test: Insecticidal test against cabbage moth (Test Example 1)
# Format: in vivo
# Details: chemical solution 10 ppm (**); cabbage leaf dip; second instar larva; after 6 days; 25° C.
row,SMILES,insecticidal rate (rate of dead insects)
1,Cc1cc(C2=NOC(c3cc(Cl)cc(Cl)c3)(C(F)(F)F)C2)ccc1C(=O)N(C(=O)c1ccccn1)c1ncc(Cl)cn1 (centres unmarked) [5-150],≥ 80%
2,COc1ccc(C(=O)N(C(=O)c2ccc(C3=NOC(c4cc(Cl)cc(Cl)c4)(C(F)(F)F)C3)cc2C)c2ncc(Cl)cn2)cc1 (centres unmarked) [5-151],≥ 80%
3,Cc1cc(C2=NOC(c3cc(Cl)cc(Cl)c3)(C(F)(F)F)C2)ccc1C(=O)N(C(=O)c1ccc([N+](=O)[O-])cc1)c1ncc(Cl)cn1 (centres unmarked) [5-152],≥ 80%
4,Cc1cc(C2=NOC(c3cc(Cl)cc(Cl)c3)(C(F)(F)F)C2)ccc1C(=O)N(C(=O)OC(C)C)c1ncc(Cl)cn1 (centres unmarked) [5-153],≥ 80%
5,CCCCOC(=O)N(C(=O)c1ccc(C2=NOC(c3cc(Cl)cc(Cl)c3)(C(F)(F)F)C2)cc1C)c1ncc(Cl)cn1 (centres unmarked) [5-154],≥ 80%
6,Cc1cc(C2=NOC(c3cc(Cl)cc(Cl)c3)(C(F)(F)F)C2)ccc1C(=O)N(C(=O)OC(C)(C)C)c1ncc(Cl)cn1 (centres unmarked) [5-155],≥ 80%
7,Cc1cc(C2=NOC(c3cc(Cl)cc(Cl)c3)(C(F)(F)F)C2)ccc1C(=O)N(C(=O)OCCCl)c1ncc(Cl)cn1 (centres unmarked) [5-156],≥ 80%
8,C=CCOC(=O)N(C(=O)c1ccc(C2=NOC(c3cc(Cl)cc(Cl)c3)(C(F)(F)F)C2)cc1C)c1ncc(Cl)cn1 (centres unmarked) [5-157],≥ 80%
9,Cc1cc(C2=NOC(c3cc(Cl)cc(Cl)c3)(C(F)(F)F)C2)ccc1C(=O)N(C(=O)Oc1ccccc1)c1ncc(Cl)cn1 (centres unmarked) [5-158],≥ 80%
10,CCOCN(C(=O)c1ccc(C2=NOC(c3cc(Cl)cc(Cl)c3)(C(F)(F)F)C2)cc1C)c1ncc(Br)cn1 (centres unmarked) [5-160],≥ 80%
11,Cc1cc(C2=NOC(c3cc(Cl)cc(Cl)c3)(C(F)(F)F)C2)ccc1C(=O)N(C(=O)c1ccccc1)c1ncc(Br)cn1 (centres unmarked) [5-162],≥ 80%
12,COCCOC(=O)N(C(=O)c1ccc(C2=NOC(c3cc(Cl)cc(Cl)c3)(C(F)(F)F)C2)cc1C)c1ncc(Br)cn1 (centres unmarked) [5-163],≥ 80%
13,CC(=O)N(C(=O)c1ccc(C2=NOC(c3cc(Cl)cc(Cl)c3)(C(F)(F)F)C2)cc1C)c1cncnc1 (centres unmarked) [5-165],≥ 80%
14,CCC(=O)N(C(=O)c1ccc(C2=NOC(c3cc(Cl)cc(Cl)c3)(C(F)(F)F)C2)cc1C)c1cncnc1 (centres unmarked) [5-166],≥ 80%
15,CCCC(=O)N(C(=O)c1ccc(C2=NOC(c3cc(Cl)cc(Cl)c3)(C(F)(F)F)C2)cc1C)c1cncnc1 (centres unmarked) [5-167],≥ 80%
16,Cc1cc(C2=NOC(c3cc(Cl)cc(Cl)c3)(C(F)(F)F)C2)ccc1C(=O)N(C(=O)C(C)C)c1cncnc1 (centres unmarked) [5-168],≥ 80%
17,COC(=O)N(C(=O)c1ccc(C2=NOC(c3cc(Cl)cc(Cl)c3)(C(F)(F)F)C2)cc1C)c1cnc(Cl)cn1 (centres unmarked) [5-174],≥ 80%

row,SMILES,insecticidal rate (rate of dead insects)
1,CC(=O)N(C(=O)c1ccc(C2=NOC(c3cc(Cl)cc(Cl)c3)(C(F)(F)F)C2)cc1[N+](=O)[O-])c1ncc(Cl)cn1 (centres unmarked) [5-175],≥ 80%
2,COC(=O)OCN(C(=O)c1ccc(C2=NOC(c3cc(Cl)cc(Cl)c3)(C(F)(F)F)C2)cc1C)c1ncc(Cl)cn1 (centres unmarked) [5-178],≥ 80%
3,COCN(C(=O)c1ccc(C2=NOC(c3cc(Cl)cc(Cl)c3)(C(F)(F)F)C2)cc1C)c1ncc(C#N)cn1 (centres unmarked) [5-180],≥ 80%
4,CC(=O)N(C(=O)c1ccc(C2=NOC(c3cc(Cl)cc(Cl)c3)(C(F)(F)F)C2)cc1C)c1ncc(C#N)cn1 (centres unmarked) [5-182],≥ 80%
5,Cc1cc(C2=NOC(c3cc(Cl)cc(Cl)c3)(C(F)(F)F)C2)ccc1C(=O)N(C(=O)C(C)C)c1ncc(C#N)cn1 (centres unmarked) [5-183],≥ 80%
6,COC(=O)N(C(=O)c1ccc(C2=NOC(c3cc(Cl)cc(Cl)c3)(C(F)(F)F)C2)cc1C)c1ncc(C#N)cn1 (centres unmarked) [5-184],≥ 80%
7,CC(=O)N(C(=O)c1ccc(C2=NOC(c3cc(Cl)cc(Cl)c3)(C(F)(F)F)C2)cc1C)c1cnccn1 (centres unmarked) [5-192],≥ 80%
8,COCN(C(=O)c1ccc(C2=NOC(c3cc(Cl)cc(Cl)c3)(C(F)(F)F)C2)cc1C)c1cnc(Cl)cn1 (centres unmarked) [5-193],≥ 80%
9,CC(=O)N(C(=O)c1ccc(C2=NOC(c3cc(Cl)cc(Cl)c3)(C(F)(F)F)C2)cc1C)c1cnc(Cl)cn1 (centres unmarked) [5-194],≥ 80%
10,Cc1cc(C2=NOC(c3cc(Cl)cc(Cl)c3)(C(F)(F)F)C2)ccc1C(=O)N(C)c1cnc(C#N)cn1 (centres unmarked) [5-195],≥ 80%
11,COCN(C(=O)c1ccc(C2=NOC(c3cc(Cl)cc(Cl)c3)(C(F)(F)F)C2)cc1C)c1cnc(C#N)cn1 (centres unmarked) [5-196],≥ 80%
12,CC(=O)N(C(=O)c1ccc(C2=NOC(c3cc(Cl)cc(Cl)c3)(C(F)(F)F)C2)cc1C)c1cnc(C#N)cn1 (centres unmarked) [5-197],≥ 80%
13,COCN(C(=O)c1ccc(C2=NOC(c3cc(Cl)cc(Cl)c3)(C(F)(F)F)C2)cc1C)c1cncnc1 (centres unmarked) [5-198],≥ 80%
14,Cc1cc(C2=NOC(c3cc(Cl)cc(Cl)c3)(C(F)(F)F)C2)ccc1C(=O)N(CC#N)c1ncc(C#N)cn1 (centres unmarked) [5-204],≥ 80%
15,CCC(=O)N(C(=O)c1ccc(C2=NOC(c3cc(Cl)cc(Cl)c3)(C(F)(F)F)C2)cc1C)c1ncc(C#N)cn1 (centres unmarked) [5-205],≥ 80%
16,Cc1cc(C2=NOC(c3cc(Cl)cc(Cl)c3)(C(F)(F)F)C2)ccc1C(=O)N(CC#N)c1cncnc1 (centres unmarked) [5-206],≥ 80%

# Same assay, conditions: chemical solution 100 ppm (*); cabbage leaf dip; second instar larva; after 6 days; 25° C.
row,SMILES,insecticidal rate (rate of dead insects)
1,C=CCN(C(=O)c1ccc(C2=NOC(c3cc(Cl)cc(Cl)c3)(C(F)(F)F)C2)cc1C)c1ncc(Br)cn1 (centres unmarked) [5-161],≥ 80%
2,Cc1cc(C2=NOC(c3cc(Cl)cc(Cl)c3)(C(F)(F)F)C2)ccc1C(=O)N(C)c1ccco1 (centres unmarked) [5-176],≥ 80%
3,Cc1cc(C2=NOC(c3cc(Cl)cc(Cl)c3)(C(F)(F)F)C2)ccc1C(=O)N(C(=O)OC(C)(C)C)c1ccco1 (centres unmarked) [5-177],≥ 80%
4,COCN(C(=O)c1ccc(C2=NOC(c3cc(Cl)cc(Cl)c3)(C(F)(F)F)C2)cc1C)c1cnc(Cl)nc1 (centres unmarked) [5-185],≥ 80%
5,CC(=O)N(C(=O)c1ccc(C2=NOC(c3cc(Cl)cc(Cl)c3)(C(F)(F)F)C2)cc1C)c1cnc(Cl)nc1 (centres unmarked) [5-186],≥ 80%
6,COC(=O)N(C(=O)c1ccc(C2=NOC(c3cc(Cl)cc(Cl)c3)(C(F)(F)F)C2)cc1C)c1cnc(Cl)nc1 (centres unmarked) [5-187],≥ 80%
7,Cc1cc(C2=NOC(c3cc(Cl)cc(Cl)c3)(C(F)(F)F)C2)ccc1C(=O)N(C(=O)OC(C)(C)C)c1ccccc1 (centres unmarked) [5-199],≥ 80%
8,Cc1cc(C2=NOC(c3cc(Cl)cc(Cl)c3)(C(F)(F)F)C2)ccc1C(=O)NC=NO (centres unmarked) [6-002],≥ 80%

# Same assay, conditions: chemical solution 500 ppm; cabbage leaf dip; second instar larva; after 6 days; 25° C.
row,SMILES,insecticidal rate (rate of dead insects)
1,CC(=O)N(C(=O)c1ccc(C2=NOC(c3cc(Cl)cc(Cl)c3)(C(F)(F)F)C2)cc1C)c1cnc(Cl)nc1Cl (centres unmarked) [5-190],≥ 80%
2,COC(=O)N(C(=O)c1ccc(C2=NOC(c3cc(Cl)cc(Cl)c3)(C(F)(F)F)C2)cc1C)c1cnc(Cl)nc1Cl (centres unmarked) [5-191],≥ 80%
3,O=C(NC=NO)c1ccc(C2=NOC(c3cc(Cl)cc(Cl)c3)(C(F)(F)F)C2)cc1 (centres unmarked) [6-001],≥ 80%
